Source: PubChem BioAssay AID1671190 (National Center for Advancing Translational Sciences (NCATS), 2021)
The whole screen tested about 580,000 compounds, of which about 6,100 (1.1%) were called active. The inconclusive results got no clear call from the source; some entries with a clear call stand among them for comparison. Calls follow the shape of the dose curve; as a rule, active = well fitted inhibition curve with a large enough effect; inconclusive = small, poorly fitted or top-dose-only effect, or another doubt; inactive = no such curve, though single readings can be large or run the other way. Potencies beside an inconclusive call are fits to weak or partial responses and may not hold up.

By UniProt entry, the sequences of proteins in these tests, tags left out. Where a name states a change or a piece, a line headed by the entry shows the natural chain unless it says otherwise.
UniProt P18054: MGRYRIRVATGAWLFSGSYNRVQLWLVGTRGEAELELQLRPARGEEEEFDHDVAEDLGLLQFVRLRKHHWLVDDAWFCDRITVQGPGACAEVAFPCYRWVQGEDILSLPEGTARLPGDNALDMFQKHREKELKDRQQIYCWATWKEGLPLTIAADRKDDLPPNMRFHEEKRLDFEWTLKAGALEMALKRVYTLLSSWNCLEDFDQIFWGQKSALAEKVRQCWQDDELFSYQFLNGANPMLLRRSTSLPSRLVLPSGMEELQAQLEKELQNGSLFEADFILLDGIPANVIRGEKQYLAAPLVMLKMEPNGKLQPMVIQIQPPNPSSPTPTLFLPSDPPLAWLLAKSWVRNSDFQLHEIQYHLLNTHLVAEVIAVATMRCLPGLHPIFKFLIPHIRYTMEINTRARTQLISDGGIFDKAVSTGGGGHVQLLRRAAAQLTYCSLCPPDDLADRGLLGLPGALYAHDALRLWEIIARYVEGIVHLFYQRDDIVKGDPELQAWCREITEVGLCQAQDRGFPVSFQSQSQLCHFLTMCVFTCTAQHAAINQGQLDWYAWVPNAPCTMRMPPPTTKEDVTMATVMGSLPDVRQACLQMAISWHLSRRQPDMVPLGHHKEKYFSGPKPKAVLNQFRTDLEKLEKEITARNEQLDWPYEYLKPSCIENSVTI

These compounds were tested against Polyunsaturated fatty acid lipoxygenase ALOX12 (Homo sapiens) (UniProt P18054) (assay: Primary qHTS assay for inhibitors of human arachidonate 12S-lipoxygenase (ALOX12): Round 2). Conditions: purified 12hLO, xylenol orange hydroperoxide absorbance; activity change, negative = inhibition: at 108 µM (top of the series) unless noted.
How it was run: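 Purified human 12hLO (150 nM final) in 25 mM Hepes, 0.01% Triton X-100, pH 7.0 was preincubated 15 min at room temperature with compound. Then 40 uM arachidonic acid was added, 30 min. Hydroperoxide was read by Fe-XO absorbance ratio 573/405 nm.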
% is scaled to controls: 0 for no effect and ±100 for the full control effect; potency is read from the fitted curve at half-maximal effect.

| SMILES | Potency | activity change, negative = inhibition |
| --- | --- | --- |
| CN(c1ncc(C(F)(F)F)cc1Cl)N1C(=O)c2cccc([N+](=O)[O-])c2C1=O | inconclusive: 44.7 µM [inhibitor, partial curve, poor fit] |  |
| CCCC(=O)N(Cc1cc2cc(OC)ccc2[nH]c1=O)c1ccccc1OC |  | inactive: 3.09% |
| CC1(CNC(=O)c2ccc3ccccc3n2)CCOCC1 |  | inactive: 42.1% |
| COc1cccc(-n2nnc3c(N4CCN(S(=O)(=O)c5ccccc5F)CC4)ncnc32)c1 | inconclusive: 126 µM [inhibitor, single point] |  |
| CCOC(=O)c1cnc2c(OC)cccc2c1Oc1ccccc1 | inconclusive: 100 µM [inhibitor, single point] |  |
| CC(C)[C@H](NC(=O)c1ccco1)C(=O)OCC(=O)c1ccc(Br)s1 | inconclusive: 50.1 µM [inhibitor, partial curve, poor fit] |  |
| O=C(NCc1ccco1)c1cc2sccc2n1Cc1ccc(F)cc1 | inconclusive: 35.5 µM [inhibitor, partial curve, poor fit] |  |
| COc1ccccc1CNS(=O)(=O)c1ccc(N2C(=O)C(C)CS2(=O)=O)cc1 (stereo not given) |  | inactive: -4.26% |
| Cc1ccc(-n2c(Cn3nc(C(F)(F)F)cc3C)n[nH]c2=S)cc1 | inconclusive: 44.7 µM [inhibitor, partial curve, poor fit] |  |
| COc1ccc(OC)c(/C=C/c2ccnc3ccccc23)c1 | inconclusive: 44.7 µM [inhibitor, partial curve, poor fit] |  |
| N[C@@H]1CC[C@@H]1NC(=O)c1cnc(-c2cccnc2)nc1 | inconclusive: 35.5 µM [inhibitor, single point] |  |
| O=C(O)c1cc2c(ccc3ccccc32)oc1=O |  | inactive: -28.9% |
| CN(C)C(CNC(=O)c1cc(S(=O)(=O)N(C)Cc2ccccc2)ccc1Cl)c1ccco1 (stereo not given) |  | inactive: 16.7% |
| COc1cccc(/C=C/C(=O)OCC(=O)N(C)CC(=O)Nc2ccccc2Cl)c1OC | inconclusive: 126 µM [inhibitor, single point] |  |
| COc1ccc(C2C(C(C)=O)=C(O)C(=O)N2c2cccc(OC)c2)cc1 (stereo not given) | inconclusive: 2.24 µM [inhibitor, full curve, poor fit] |  |
| CCN(CC)c1nc(-c2cccc(OC)c2O)nc2ccccc12 | inconclusive: 14.1 µM [inhibitor, partial curve, poor fit] |  |
| O=C(CC(c1cccc([N+](=O)[O-])c1)c1c[nH]c2ccccc12)NCCc1ccccc1 (stereo not given) |  | inactive: -1.58% |
| N#Cc1nc(-c2ccc(Cl)cc2)oc1N1CCN(CCO)CC1 |  | inactive: -17.8% |
| CC(C)(C)N1C(=O)c2ccccc2NC(=O)N1Cc1ccccc1 |  | inactive: 18.7% |
| Cc1cc(C)c(C)c(S(=O)(=O)Nc2ccc3cn[nH]c3c2)c1C |  | inactive: 3.81% |
| CCCC(C(=O)NCc1cccc(Cl)c1)N1Cc2ccccc2C1=O (stereo not given) |  | inactive: 3.72% |
| c1cc(C2OCCN2CC2COC3(CCCC3)O2)ccn1 (stereo not given) | inconclusive: 25.1 µM [inhibitor, single point] |  |
| Cc1ccc(CNC(=O)c2nn(-c3ccc(F)cc3)c3c2CCC3)cc1 |  | inactive: -20.9% |

By substructure, the entries above with a nitro group on carbon (two)

| SMILES | Potency | activity change, negative = inhibition |
| --- | --- | --- |
| CN(c1ncc(C(F)(F)F)cc1Cl)N1C(=O)c2cccc([N+](=O)[O-])c2C1=O | inconclusive: 44.7 µM [inhibitor, partial curve, poor fit] |  |
| O=C(CC(c1cccc([N+](=O)[O-])c1)c1c[nH]c2ccccc12)NCCc1ccccc1 (stereo not given) |  | inactive: -1.58% |

(continued)

| SMILES | Potency | activity change, negative = inhibition |
| --- | --- | --- |
| CN(Cc1ccc(Cl)cc1Cl)C(=O)c1cc(=O)c2ccccc2o1 | inconclusive: 100 µM [inhibitor, single point] |  |
| Cc1csc2nc(COC(=O)c3cccc(NC(=O)COc4ccc(Cl)cc4)c3)cc(=O)n12 | inconclusive: 44.7 µM [inhibitor, partial curve, poor fit] |  |
| O=C(COC(=O)c1cc(Cl)ccc1[N+](=O)[O-])NC1CC1 |  | inactive: -3.5% |
| CSc1nsc(SC)c1C(=O)NC(=O)Nc1cccnc1 |  | inactive: 154% |
| CCNC(=S)Nc1cccc(C#N)c1 |  | inactive: 13.3% |
| CCN1CCOC(=O)C1CC(=O)Nc1cc(C)ccc1OC (stereo not given) |  | inactive: -4.15% |
| Cc1cc(-c2ccc(C)c(S(=O)(=O)Nc3ccc(S(N)(=O)=O)cc3)c2)on1 | inconclusive: 112 µM [inhibitor, partial curve, poor fit] |  |
| Oc1ccccc1/C=N/Nc1ccnc(SCc2ccccc2)n1 | inconclusive: 56.2 µM [inhibitor, partial curve, poor fit] |  |
| O=C(NCc1cccnc1)c1ccc(COc2ccc(Cl)cc2)cc1 |  | inactive: -4.46% |
| COc1ccc(C2CC(=O)Nc3c2c(=O)nc(SCc2ccccc2)n3C)cc1Br (stereo not given) | inconclusive: 126 µM [inhibitor, single point] |  |
| COc1cc(=O)n2c(c1C(=O)Nc1cccc(F)c1C)CCCC2 |  | inactive: -5.09% |
| CCOc1ccccc1CN1CCC(N2CCOCC2)CC1 | inconclusive: 2.82 µM [inhibitor, full curve, poor fit] |  |
| COCCn1c(=O)c2c(nc3n2CCCN3Cc2ccccc2)n(C)c1=O |  | inactive: 0% |
| Fc1cccc(Cc2c(C3CCCCC3)nc3ccc(Cl)cn23)c1 | inconclusive: 56.2 µM [inhibitor, partial curve, poor fit] |  |
| COc1ccccc1N1CCN([C@@H]2[C@H](O)[C@H](CO)O[C@@H]2CN)CC1 | inconclusive: 5.62 µM [inhibitor, full curve] |  |
| FC(F)(F)c1cccc(N2CCN(C(c3ccc(Br)cc3)c3nnc(-c4ccccc4)o3)CC2)c1 (stereo not given) | inconclusive: 35.5 µM [inhibitor, partial curve] |  |
| CCOc1ccc(CCN2C(=S)N([C@@H](Cc3ccc(O)cc3)CN3CCC[C@@H]3CN3C(=S)NC[C@@H]3Cc3ccccc3)C[C@@H]2Cc2ccc(O)cc2)cc1 | inconclusive: 44.7 µM [inhibitor, partial curve, poor fit] |  |
| Cc1ccc(NC(=O)c2csc3c2CCCCC3)c(C)c1 |  | inactive: -28.7% |
| O=C(Nc1cccc(Cl)c1)C1CCN(C(=O)c2cccs2)CC1 | inconclusive: 50.1 µM [inhibitor, partial curve, poor fit] |  |
| CC(C)(C)OC(=O)N(Cc1ccccc1)Cc1ccc(OCc2cccc(NC(=O)C3CC3)c2)cc1 | inconclusive: 35.5 µM [inhibitor, single point] |  |
| CCc1nc2c(OCc3ccc(Cl)cc3)cccn2c1N(C=O)Cc1ccccc1 | inconclusive: 39.8 µM [inhibitor, partial curve] |  |
| CCOC(=O)c1sc(NC(=O)c2ccc(OC)cc2)nc1C | inconclusive: 31.6 µM [inhibitor, partial curve, poor fit] |  |
